1 compound from patent US20230146395A1, “Substituted Pyrimidines and Uses Thereof” (Verge Analytics, Inc., priority 2020, published 2023) can be followed below.

Protein sequences, listed by entry. Tags and fused reporters are not part of them.
UniProt Q9Y2I7, whole entry: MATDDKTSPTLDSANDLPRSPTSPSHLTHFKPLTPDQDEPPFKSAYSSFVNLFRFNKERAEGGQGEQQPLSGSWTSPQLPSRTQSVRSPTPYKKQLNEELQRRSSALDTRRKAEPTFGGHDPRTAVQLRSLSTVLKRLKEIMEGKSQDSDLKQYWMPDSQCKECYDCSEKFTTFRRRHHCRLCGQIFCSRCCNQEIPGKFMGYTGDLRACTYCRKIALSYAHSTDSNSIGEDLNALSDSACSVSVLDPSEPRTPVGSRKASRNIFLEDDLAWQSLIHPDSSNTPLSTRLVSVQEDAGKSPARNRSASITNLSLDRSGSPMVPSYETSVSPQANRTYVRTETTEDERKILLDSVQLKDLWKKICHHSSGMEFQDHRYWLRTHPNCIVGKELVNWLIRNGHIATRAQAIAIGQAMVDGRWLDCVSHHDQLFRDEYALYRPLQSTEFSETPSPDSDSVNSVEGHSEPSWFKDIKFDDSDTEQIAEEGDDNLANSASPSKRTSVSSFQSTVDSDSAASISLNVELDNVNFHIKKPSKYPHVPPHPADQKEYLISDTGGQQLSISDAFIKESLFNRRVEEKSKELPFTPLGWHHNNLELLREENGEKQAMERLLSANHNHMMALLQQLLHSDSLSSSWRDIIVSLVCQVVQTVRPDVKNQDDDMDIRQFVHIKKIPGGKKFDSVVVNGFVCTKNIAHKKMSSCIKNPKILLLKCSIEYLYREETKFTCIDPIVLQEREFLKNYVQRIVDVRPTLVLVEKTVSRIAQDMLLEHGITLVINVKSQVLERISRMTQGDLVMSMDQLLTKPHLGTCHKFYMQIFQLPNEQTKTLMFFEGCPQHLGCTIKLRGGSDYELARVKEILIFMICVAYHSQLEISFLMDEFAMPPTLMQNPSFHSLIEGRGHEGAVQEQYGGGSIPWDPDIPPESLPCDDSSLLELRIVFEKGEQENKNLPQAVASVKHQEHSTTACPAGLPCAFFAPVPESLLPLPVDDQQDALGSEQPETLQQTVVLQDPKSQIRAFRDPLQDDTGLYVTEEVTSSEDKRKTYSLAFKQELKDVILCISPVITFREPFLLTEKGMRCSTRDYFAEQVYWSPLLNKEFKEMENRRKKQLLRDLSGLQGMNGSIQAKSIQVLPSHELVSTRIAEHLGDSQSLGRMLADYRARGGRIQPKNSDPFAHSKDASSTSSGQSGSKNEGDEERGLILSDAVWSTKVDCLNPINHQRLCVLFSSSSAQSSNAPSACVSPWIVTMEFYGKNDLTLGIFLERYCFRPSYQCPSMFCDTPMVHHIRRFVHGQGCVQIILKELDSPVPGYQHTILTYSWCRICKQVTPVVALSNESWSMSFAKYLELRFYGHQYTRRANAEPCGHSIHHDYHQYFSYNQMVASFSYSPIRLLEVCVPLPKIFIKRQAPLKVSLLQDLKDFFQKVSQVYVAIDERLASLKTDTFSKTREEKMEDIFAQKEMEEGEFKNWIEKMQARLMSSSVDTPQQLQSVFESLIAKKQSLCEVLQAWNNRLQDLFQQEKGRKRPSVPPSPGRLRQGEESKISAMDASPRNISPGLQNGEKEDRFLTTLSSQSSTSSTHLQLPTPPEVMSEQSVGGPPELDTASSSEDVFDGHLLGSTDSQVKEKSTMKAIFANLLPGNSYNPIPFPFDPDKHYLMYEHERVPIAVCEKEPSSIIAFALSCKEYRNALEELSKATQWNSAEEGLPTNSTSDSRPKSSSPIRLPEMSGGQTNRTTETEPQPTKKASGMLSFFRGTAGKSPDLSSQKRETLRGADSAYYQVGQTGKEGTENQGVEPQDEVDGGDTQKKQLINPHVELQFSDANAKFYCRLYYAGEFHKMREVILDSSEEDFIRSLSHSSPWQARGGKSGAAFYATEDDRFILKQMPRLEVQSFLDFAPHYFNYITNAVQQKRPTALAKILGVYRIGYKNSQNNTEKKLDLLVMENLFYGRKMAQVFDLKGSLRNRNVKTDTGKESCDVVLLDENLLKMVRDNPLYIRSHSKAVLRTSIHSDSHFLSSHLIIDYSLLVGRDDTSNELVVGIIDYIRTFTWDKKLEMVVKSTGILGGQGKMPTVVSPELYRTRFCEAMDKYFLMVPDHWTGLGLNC

The structures given here were assigned with low confidence; some may be wrong.

The assay deals with Full length human recombinant PIKFYVE (Homo sapiens, UniProt Q9Y2I7). Description: Inhibition of PIKfyve (microfluidic electrophoresis kinase assay, PI3P/PS substrate). The settings on record: read-out: PIKfyve IC50, 12 concentrations, tested form: HCl.

`C[C@@H](NC(=O)c1cc2nc(Nc3cc(-c4ccccc4)[nH]n3)nc(N3CCOCC3)c2o1)C1CC1`: the IC50 worked out at 0.7 nM.
